Data on one substance can be found in paper PMC11582751.

Results are given in words; binding and its absence hold for the method and conditions named. In cells and extracts the contact can be indirect. A result given as binding can be weak or reduced; the word gives no strength. Tags and fused reporters may be left off the sequences shown.

The target in the experiment is T1, SFB-tagged LATS2 (human) (UniProt Q9NRM7).
T1 sequence: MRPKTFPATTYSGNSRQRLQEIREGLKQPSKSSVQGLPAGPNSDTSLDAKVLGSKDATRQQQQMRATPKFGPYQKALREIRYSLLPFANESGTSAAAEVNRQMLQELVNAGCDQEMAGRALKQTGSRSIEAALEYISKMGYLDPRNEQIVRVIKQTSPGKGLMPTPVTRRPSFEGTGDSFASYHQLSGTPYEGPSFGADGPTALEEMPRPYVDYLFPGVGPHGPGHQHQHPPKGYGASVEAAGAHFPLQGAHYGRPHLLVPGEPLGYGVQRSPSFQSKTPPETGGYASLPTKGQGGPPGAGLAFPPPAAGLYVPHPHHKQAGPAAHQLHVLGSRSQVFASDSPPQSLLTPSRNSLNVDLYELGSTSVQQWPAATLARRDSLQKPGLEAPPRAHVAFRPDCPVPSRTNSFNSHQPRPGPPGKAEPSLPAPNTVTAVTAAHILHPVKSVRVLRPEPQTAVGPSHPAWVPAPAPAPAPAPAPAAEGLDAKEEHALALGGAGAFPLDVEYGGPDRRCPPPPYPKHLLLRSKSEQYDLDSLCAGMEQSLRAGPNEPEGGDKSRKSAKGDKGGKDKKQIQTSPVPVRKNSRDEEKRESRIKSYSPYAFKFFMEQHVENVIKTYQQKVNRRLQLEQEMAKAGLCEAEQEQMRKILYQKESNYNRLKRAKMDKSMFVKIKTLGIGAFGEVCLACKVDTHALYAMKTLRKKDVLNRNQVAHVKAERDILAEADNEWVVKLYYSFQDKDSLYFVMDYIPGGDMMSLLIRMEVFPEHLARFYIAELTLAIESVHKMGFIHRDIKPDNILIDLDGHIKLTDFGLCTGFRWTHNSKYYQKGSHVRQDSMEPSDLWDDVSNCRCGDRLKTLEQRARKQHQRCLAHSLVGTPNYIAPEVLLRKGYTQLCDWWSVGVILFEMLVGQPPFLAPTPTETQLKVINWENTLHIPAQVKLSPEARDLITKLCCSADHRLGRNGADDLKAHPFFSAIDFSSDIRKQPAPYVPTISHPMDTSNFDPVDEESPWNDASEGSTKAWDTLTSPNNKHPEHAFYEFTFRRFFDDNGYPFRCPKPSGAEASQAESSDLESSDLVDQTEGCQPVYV
As to the kind of experiment: pull-down; HEK293T cells transfected with HA-MOB1 and SFB-tagged LATS1 or LATS2 (LOF mutants); pulldown with S protein beads.

Turning to HA-MOB1 (human), the binding result is on record as “binds”.
